At least one compound was matched to its structure with a doubt left.
How the values were obtained:
human Y4 receptor = target: T1, human Y4 receptor (Homo sapiens, UniProt P50391); assay: Scintillation proximity assay (SPA) receptor binding, Y4; settings: selectivity Y4 over Y2, Table 2 binding affinity
T1 construct: expressed in transfected cells; host or cells: CHO-K1 (membrane preparation)
Protocol: (§1) The purpose of this example is to test the in vitro binding of the PYY compounds to the Y1, Y2, Y4 and Y5 receptor subtypes, respectively. The receptor binding affinity is a measure of affinity of a compound for the human Y1, Y2, Y4 and Y5 receptor subtypes, respectively.
(§2) Scintillation Proximity Assay (SPA)
(§3) NPY-Receptor Expressing Cell Lines.
(§4) All cells were cultured at +37° C. in a humidified atmosphere with 5% CO2. […] CHO-K1 cells stably expressing the human Y2 receptor (P49146, NPY2R_HUMAN, Uniprot) were cultured in DMEM F-12 with 10% FBS, 1% P/S, 150 μg/ml Hygromycin B and 10 μg/ml Puromycin antibiotic. CHO-K1 cells stably expressing the human Y4 receptor (P50391, NPY4R_HUMAN, Uniprot) were cultured in DMEM F-12 with 10% FBS, 1% P/S, 10 μg/ml Puromycin. HEK-293 cells stably expressing the human Y5 receptor (Q15761, NPY5R_HUMAN, Uniprot) were cultured in DMEM F-12 medium containing 10% FBS, 1% Penicillin-Streptomycin, 250 μg/ml G418 and 1 μg/ml puromycin.
(§5) The homogenate was centrifuged at 35000 g using an ultracentrifuge for 10 minutes at +4° C. and the supernatant was discarded and fresh homogenization buffer added. Homogenization of the pellet was repeated a total of three times.
(§6) Human Y receptor SPA binding assay were performed in white 96-well plates in a total volume of 200 μl per well.
(§7) Plates were sealed and incubated at +25° C. for 2 hours in a plate shaker set at 400 rpm and thereafter centrifuged at 1500 rpm for 10 minutes prior to reading of luminescence on a microplate scintillation and luminescence counter. […] Displacement of radioligand was measured as reduction in luminescence and IC50 values were calculated by nonlinear regression analysis of sigmoidal dose-response curves.

By UniProt entry, the sequences of proteins in these tests, tags left out. Where a name states a change or a piece, a line headed by the entry shows the natural chain unless it says otherwise.
UniProt P50391: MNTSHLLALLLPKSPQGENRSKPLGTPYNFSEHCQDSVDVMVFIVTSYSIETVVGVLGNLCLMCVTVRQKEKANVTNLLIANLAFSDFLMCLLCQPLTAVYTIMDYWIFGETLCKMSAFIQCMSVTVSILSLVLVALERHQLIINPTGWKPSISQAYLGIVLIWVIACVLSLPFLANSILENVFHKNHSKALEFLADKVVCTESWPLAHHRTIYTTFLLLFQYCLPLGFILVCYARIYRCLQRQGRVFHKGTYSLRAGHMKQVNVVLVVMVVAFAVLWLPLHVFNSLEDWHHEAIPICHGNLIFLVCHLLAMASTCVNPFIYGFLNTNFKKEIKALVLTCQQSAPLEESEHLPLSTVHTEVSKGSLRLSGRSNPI

human Y5 receptor = target: T2, human Y5 receptor (Homo sapiens, UniProt Q15761); assay: Scintillation proximity assay (SPA) receptor binding, Y5; settings: selectivity Y5 over Y2, Table 2 binding affinity
T2 construct: expressed in transfected cells; host or cells: HEK-293 (membrane preparation)
T2 sequence (Q15761 1-445): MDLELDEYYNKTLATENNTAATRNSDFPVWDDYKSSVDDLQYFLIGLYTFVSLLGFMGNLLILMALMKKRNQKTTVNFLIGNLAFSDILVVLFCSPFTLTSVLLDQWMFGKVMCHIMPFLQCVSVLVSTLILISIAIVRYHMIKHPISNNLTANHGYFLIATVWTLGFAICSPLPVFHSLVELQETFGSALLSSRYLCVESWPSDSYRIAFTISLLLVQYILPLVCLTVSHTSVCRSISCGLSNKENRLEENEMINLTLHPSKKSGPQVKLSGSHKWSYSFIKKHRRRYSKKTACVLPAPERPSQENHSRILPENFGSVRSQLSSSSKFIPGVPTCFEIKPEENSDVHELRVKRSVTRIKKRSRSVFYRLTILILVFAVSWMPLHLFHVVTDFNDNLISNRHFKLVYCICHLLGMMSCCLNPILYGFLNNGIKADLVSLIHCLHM
Protocol: as §1, §2, §3, §4, §5, §6, §7

| Compound | Ratio of Y4/Y2 EC50 values (human Y4 receptor) | Ratio of Y5/Y2 EC50 values (human Y5 receptor) |
| --- | --- | --- |
| CC(C)CC(=O)N[C@@H](CCCNC(=N)N)C(=O)N1CCC[C@H]1C(=O)N[C@@H](CCC(=O)O)C(=O)N[C@@H](CCCCNC(=O)CC[C@H](NC(=O)CCCCCCCCCCCCCCCCC(=O)O)C(=O)O)C(=O)N1CCC[C@H]1C(=O)N[C@H](C(=O)N[C@@H](CCC(=O)O)C(=O)N[C@@H](CC(=O)O)C(=O)N[C@@H](C)C(=O)N[C@@H](CO)C(=O)N1CCC[C@H]1C(=O)N[C@@H](CCC(=O)O)C(=O)N[C@@H](CCC(=O)O)C(=O)N[C@@H](CC(C)C)C(=O)N[C@@H](CCC(N)=O)C(=O)N[C@@H](CCCNC(=N)N)C(=O)N[C@@H](Cc1ccc(O)cc1)C(=O)N[C@@H](Cc1ccc(O)cc1)C(=O)N[C@H](C(=O)N[C@@H](CO)C(=O)N[C@@H](CC(C)C)C(=O)N[C@@H](CCCNC(=N)N)C(=O)N[C@@H](Cc1c[nH]cn1)C(=O)N[C@@H](Cc1ccc(O)cc1)C(=O)N[C@@H](Cc1ccc(O)cc1)C(=O)N[C@@H](CC(N)=O)C(=O)N[C@@H](Cc1c[nH]c2ccccc12)C(=O)N[C@@H](CC(C)C)C(=O)N[C@H](C(=O)N[C@@H](CCCNC(=N)N)C(=O)N[C@@H](CCC(N)=O)C(=O)N[C@@H](CCCNC(=N)N)C(=O)N[C@@H](Cc1ccc(O)cc1)C(N)=O)[C@@H](C)O)C(C)C)[C@@H](C)O [Compound 44, N{alpha-4}-(3-Methylbutanoyl)-N{Epsilon-7}-[(4S)-4-carboxy-4-(17-carboxy-heptadecanoylamino)butanoyl]-[Arg4,Lys7,Thr9,Gln18,Val22,Tyr28,Trp30,Leu31]hPYY(4-36)] | 20212 | 1423 |
| CC(C)CC(=O)N[C@@H](CCCNC(=N)N)C(=O)N1CCC[C@H]1C(=O)N[C@@H](CCC(=O)O)C(=O)N[C@@H](C)C(=O)N1CCC[C@H]1C(=O)NCC(=O)N[C@@H](CCCCNC(=O)CC[C@H](NC(=O)COCCOCCNC(=O)CC[C@H](NC(=O)CCCCCCCCCCCCCCCCC(=O)O)C(=O)O)C(=O)O)C(=O)N[C@@H](CC(=O)O)C(=O)N[C@@H](C)C(=O)N[C@@H](CO)C(=O)N1CCC[C@H]1C(=O)N[C@@H](CCC(=O)O)C(=O)N[C@@H](CCC(=O)O)C(=O)N[C@@H](CC(C)C)C(=O)N[C@@H](CCC(N)=O)C(=O)N[C@@H](CCCNC(=N)N)C(=O)N[C@@H](Cc1ccc(O)cc1)C(=O)N[C@@H](Cc1ccc(O)cc1)C(=O)N[C@@H](C)C(=O)N[C@@H](CCC(=O)O)C(=O)N[C@@H](CC(C)C)C(=O)N[C@@H](CCCNC(=N)N)C(=O)N[C@@H](Cc1c[nH]cn1)C(=O)N[C@@H](Cc1ccc(O)cc1)C(=O)N[C@@H](Cc1ccc(O)cc1)C(=O)N[C@@H](CC(N)=O)C(=O)N[C@@H](Cc1c[nH]c2ccccc12)C(=O)N[C@@H](CC(C)C)C(=O)N[C@H](C(=O)N[C@@H](CCCNC(=N)N)C(=O)N[C@@H](CCC(N)=O)C(=O)N[C@@H](CCCNC(=N)N)C(=O)N[C@@H](Cc1ccc(O)cc1)C(N)=O)[C@@H](C)O [Compound 53, N{alpha-4}-(3-Methylbutanoyl)-N{Epsilon-10}-[(4S)-4-carboxy-4-[[2-[2-[2-[[(4S)-4-carboxy-4-(17-carboxyheptadecanoylamino)butanoyl]amino]ethoxy]ethoxy]-acetyl]amino]butanoyl]-[Arg4,Lys10,Gln18,Glu23,Tyr28,Trp30,Leu31]-PYY(4-36)] | 8077 | 393 |
| CC(C)CC(=O)N[C@@H](CCCNC(=N)N)C(=O)N1CCC[C@H]1C(=O)N[C@@H](CCC(=O)O)C(=O)N[C@@H](C)C(=O)N1CCC[C@H]1C(=O)N1CCC[C@H]1C(=O)N[C@@H](CCCCNC(=O)CC[C@H](NC(=O)COCCOCCNC(=O)CC[C@H](NC(=O)CCCCCCCCCCCCCCCCC(=O)O)C(=O)O)C(=O)O)C(=O)N[C@@H](CC(=O)O)C(=O)N[C@@H](C)C(=O)N[C@@H](CO)C(=O)N1CCC[C@H]1C(=O)N[C@@H](CCC(=O)O)C(=O)N[C@@H](CCC(=O)O)C(=O)N[C@@H](CC(C)C)C(=O)N[C@@H](CCC(N)=O)C(=O)N[C@@H](CCCNC(=N)N)C(=O)N[C@@H](Cc1ccc(O)cc1)C(=O)N[C@@H](Cc1ccc(O)cc1)C(=O)N[C@@H](C)C(=O)N[C@@H](CO)C(=O)N[C@@H](CC(C)C)C(=O)N[C@@H](CCCNC(=N)N)C(=O)N[C@@H](Cc1c[nH]cn1)C(=O)N[C@@H](Cc1ccc(O)cc1)C(=O)N[C@@H](Cc1ccc(O)cc1)C(=O)N[C@@H](CC(N)=O)C(=O)N[C@@H](Cc1c[nH]c2ccccc12)C(=O)N[C@@H](CC(C)C)C(=O)N[C@H](C(=O)N[C@@H](CCCNC(=N)N)C(=O)N[C@@H](CCC(N)=O)C(=O)N[C@@H](CCCNC(=N)N)C(=O)N[C@@H](Cc1ccc(O)cc1)C(N)=O)[C@@H](C)O [Compound 56, N{alpha-4}-(3-Methylbutanoyl)-N{Epsilon-10}-[(4S)-4-carboxy-4-[[2-[2-[2-[[(4S)-4-carboxy-4-(17-carboxyheptadecanoylamino)butanoyl]amino]ethoxy]ethoxy]-acetyl]amino]butanoyl]-[Arg4,Pro9,Lys10,Gln18,Tyr28,Trp30,Leu31]-PYY(4-36)] | 3060 | 193 |
| CC(C)CC(=O)N[C@@H](CCCNC(=N)N)C(=O)N1CCC[C@H]1C(=O)N[C@@H](CCC(=O)O)C(=O)N[C@@H](C)C(=O)N1CCC[C@H]1C(=O)NCC(=O)N[C@@H](CCCCNC(=O)COCCOCCNC(=O)COCCOCCNC(=O)CC[C@H](NC(=O)CCCCCCCCCCCCCCCCC(=O)O)C(=O)O)C(=O)N[C@@H](CC(=O)O)C(=O)N[C@@H](C)C(=O)N[C@@H](CO)C(=O)N1CCC[C@H]1C(=O)N[C@@H](CCC(=O)O)C(=O)N[C@@H](CCC(=O)O)C(=O)N[C@@H](CC(C)C)C(=O)N[C@@H](CCC(N)=O)C(=O)N[C@@H](CCCNC(=N)N)C(=O)N[C@@H](Cc1ccc(O)cc1)C(=O)N[C@@H](Cc1ccc(O)cc1)C(=O)N[C@@H](CCC(=O)O)C(=O)N[C@@H](CO)C(=O)N[C@@H](CC(C)C)C(=O)N[C@@H](CCCNC(=N)N)C(=O)N[C@@H](Cc1c[nH]cn1)C(=O)N[C@@H](Cc1ccc(O)cc1)C(=O)N[C@@H](Cc1ccc(O)cc1)C(=O)N[C@@H](CC(N)=O)C(=O)N[C@@H](Cc1c[nH]c2ccccc12)C(=O)N[C@@H](CC(C)C)C(=O)N[C@H](C(=O)N[C@@H](CCCNC(=N)N)C(=O)N[C@@H](CCC(N)=O)C(=O)N[C@@H](CCCNC(=N)N)C(=O)N[C@@H](Cc1ccc(O)cc1)C(N)=O)[C@@H](C)O [Compound 51, N{alpha-4}-(3-Methylbutanoyl)-N{Epsilon-10}-[2-[2-[2-[[2-[2-[2-[[(4S)-4-carboxy-4-(17-carboxyheptadecanoylamino)butanoyl]amino]ethoxy]ethoxy]acetyl]-amino]ethoxy]ethoxy]acetyl]-[Arg4,Lys10,Gln18,Glu22,Tyr28,Trp30,Leu31]-PYY(4-36)] | >4348 | 50 |
